Measured values taken from article doi:10.64898/2025.12.10.693392.

Protein sequences, listed by entry. Tags and fused reporters are not part of them.
UniProt Q99459: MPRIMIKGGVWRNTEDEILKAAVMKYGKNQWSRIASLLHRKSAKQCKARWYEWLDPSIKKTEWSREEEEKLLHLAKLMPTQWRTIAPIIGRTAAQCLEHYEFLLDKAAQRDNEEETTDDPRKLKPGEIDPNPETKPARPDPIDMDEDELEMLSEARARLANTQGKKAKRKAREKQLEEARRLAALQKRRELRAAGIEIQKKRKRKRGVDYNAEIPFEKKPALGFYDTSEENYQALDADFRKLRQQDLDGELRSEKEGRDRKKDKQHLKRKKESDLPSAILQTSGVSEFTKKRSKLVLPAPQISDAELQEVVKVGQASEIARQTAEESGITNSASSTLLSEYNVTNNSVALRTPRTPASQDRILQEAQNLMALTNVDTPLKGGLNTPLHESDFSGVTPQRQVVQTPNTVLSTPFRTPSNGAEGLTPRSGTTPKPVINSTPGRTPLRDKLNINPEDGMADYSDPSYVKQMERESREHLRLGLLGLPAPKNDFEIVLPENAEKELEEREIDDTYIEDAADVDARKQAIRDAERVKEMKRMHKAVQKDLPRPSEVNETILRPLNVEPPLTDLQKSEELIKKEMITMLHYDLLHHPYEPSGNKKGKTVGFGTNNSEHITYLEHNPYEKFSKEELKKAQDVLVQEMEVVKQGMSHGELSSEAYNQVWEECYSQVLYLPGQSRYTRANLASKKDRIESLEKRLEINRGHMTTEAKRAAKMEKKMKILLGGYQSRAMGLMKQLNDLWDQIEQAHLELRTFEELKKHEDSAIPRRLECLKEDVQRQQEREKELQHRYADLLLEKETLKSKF
UniProt P12956: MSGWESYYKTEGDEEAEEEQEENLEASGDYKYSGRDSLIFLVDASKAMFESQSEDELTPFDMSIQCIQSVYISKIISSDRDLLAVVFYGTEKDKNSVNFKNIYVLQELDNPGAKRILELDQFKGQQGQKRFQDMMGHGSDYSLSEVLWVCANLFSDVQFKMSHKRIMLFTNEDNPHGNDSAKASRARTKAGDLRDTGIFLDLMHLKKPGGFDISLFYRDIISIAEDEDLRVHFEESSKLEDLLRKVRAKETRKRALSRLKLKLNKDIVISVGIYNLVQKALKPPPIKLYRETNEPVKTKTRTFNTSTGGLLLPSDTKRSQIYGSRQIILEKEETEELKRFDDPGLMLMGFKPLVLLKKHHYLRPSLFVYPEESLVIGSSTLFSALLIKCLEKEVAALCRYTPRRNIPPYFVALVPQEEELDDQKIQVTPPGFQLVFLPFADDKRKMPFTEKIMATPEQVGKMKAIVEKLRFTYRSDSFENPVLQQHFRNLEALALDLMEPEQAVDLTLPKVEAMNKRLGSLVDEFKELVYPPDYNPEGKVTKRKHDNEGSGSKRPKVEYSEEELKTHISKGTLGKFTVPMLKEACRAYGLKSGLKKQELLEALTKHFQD
UniProt P78527: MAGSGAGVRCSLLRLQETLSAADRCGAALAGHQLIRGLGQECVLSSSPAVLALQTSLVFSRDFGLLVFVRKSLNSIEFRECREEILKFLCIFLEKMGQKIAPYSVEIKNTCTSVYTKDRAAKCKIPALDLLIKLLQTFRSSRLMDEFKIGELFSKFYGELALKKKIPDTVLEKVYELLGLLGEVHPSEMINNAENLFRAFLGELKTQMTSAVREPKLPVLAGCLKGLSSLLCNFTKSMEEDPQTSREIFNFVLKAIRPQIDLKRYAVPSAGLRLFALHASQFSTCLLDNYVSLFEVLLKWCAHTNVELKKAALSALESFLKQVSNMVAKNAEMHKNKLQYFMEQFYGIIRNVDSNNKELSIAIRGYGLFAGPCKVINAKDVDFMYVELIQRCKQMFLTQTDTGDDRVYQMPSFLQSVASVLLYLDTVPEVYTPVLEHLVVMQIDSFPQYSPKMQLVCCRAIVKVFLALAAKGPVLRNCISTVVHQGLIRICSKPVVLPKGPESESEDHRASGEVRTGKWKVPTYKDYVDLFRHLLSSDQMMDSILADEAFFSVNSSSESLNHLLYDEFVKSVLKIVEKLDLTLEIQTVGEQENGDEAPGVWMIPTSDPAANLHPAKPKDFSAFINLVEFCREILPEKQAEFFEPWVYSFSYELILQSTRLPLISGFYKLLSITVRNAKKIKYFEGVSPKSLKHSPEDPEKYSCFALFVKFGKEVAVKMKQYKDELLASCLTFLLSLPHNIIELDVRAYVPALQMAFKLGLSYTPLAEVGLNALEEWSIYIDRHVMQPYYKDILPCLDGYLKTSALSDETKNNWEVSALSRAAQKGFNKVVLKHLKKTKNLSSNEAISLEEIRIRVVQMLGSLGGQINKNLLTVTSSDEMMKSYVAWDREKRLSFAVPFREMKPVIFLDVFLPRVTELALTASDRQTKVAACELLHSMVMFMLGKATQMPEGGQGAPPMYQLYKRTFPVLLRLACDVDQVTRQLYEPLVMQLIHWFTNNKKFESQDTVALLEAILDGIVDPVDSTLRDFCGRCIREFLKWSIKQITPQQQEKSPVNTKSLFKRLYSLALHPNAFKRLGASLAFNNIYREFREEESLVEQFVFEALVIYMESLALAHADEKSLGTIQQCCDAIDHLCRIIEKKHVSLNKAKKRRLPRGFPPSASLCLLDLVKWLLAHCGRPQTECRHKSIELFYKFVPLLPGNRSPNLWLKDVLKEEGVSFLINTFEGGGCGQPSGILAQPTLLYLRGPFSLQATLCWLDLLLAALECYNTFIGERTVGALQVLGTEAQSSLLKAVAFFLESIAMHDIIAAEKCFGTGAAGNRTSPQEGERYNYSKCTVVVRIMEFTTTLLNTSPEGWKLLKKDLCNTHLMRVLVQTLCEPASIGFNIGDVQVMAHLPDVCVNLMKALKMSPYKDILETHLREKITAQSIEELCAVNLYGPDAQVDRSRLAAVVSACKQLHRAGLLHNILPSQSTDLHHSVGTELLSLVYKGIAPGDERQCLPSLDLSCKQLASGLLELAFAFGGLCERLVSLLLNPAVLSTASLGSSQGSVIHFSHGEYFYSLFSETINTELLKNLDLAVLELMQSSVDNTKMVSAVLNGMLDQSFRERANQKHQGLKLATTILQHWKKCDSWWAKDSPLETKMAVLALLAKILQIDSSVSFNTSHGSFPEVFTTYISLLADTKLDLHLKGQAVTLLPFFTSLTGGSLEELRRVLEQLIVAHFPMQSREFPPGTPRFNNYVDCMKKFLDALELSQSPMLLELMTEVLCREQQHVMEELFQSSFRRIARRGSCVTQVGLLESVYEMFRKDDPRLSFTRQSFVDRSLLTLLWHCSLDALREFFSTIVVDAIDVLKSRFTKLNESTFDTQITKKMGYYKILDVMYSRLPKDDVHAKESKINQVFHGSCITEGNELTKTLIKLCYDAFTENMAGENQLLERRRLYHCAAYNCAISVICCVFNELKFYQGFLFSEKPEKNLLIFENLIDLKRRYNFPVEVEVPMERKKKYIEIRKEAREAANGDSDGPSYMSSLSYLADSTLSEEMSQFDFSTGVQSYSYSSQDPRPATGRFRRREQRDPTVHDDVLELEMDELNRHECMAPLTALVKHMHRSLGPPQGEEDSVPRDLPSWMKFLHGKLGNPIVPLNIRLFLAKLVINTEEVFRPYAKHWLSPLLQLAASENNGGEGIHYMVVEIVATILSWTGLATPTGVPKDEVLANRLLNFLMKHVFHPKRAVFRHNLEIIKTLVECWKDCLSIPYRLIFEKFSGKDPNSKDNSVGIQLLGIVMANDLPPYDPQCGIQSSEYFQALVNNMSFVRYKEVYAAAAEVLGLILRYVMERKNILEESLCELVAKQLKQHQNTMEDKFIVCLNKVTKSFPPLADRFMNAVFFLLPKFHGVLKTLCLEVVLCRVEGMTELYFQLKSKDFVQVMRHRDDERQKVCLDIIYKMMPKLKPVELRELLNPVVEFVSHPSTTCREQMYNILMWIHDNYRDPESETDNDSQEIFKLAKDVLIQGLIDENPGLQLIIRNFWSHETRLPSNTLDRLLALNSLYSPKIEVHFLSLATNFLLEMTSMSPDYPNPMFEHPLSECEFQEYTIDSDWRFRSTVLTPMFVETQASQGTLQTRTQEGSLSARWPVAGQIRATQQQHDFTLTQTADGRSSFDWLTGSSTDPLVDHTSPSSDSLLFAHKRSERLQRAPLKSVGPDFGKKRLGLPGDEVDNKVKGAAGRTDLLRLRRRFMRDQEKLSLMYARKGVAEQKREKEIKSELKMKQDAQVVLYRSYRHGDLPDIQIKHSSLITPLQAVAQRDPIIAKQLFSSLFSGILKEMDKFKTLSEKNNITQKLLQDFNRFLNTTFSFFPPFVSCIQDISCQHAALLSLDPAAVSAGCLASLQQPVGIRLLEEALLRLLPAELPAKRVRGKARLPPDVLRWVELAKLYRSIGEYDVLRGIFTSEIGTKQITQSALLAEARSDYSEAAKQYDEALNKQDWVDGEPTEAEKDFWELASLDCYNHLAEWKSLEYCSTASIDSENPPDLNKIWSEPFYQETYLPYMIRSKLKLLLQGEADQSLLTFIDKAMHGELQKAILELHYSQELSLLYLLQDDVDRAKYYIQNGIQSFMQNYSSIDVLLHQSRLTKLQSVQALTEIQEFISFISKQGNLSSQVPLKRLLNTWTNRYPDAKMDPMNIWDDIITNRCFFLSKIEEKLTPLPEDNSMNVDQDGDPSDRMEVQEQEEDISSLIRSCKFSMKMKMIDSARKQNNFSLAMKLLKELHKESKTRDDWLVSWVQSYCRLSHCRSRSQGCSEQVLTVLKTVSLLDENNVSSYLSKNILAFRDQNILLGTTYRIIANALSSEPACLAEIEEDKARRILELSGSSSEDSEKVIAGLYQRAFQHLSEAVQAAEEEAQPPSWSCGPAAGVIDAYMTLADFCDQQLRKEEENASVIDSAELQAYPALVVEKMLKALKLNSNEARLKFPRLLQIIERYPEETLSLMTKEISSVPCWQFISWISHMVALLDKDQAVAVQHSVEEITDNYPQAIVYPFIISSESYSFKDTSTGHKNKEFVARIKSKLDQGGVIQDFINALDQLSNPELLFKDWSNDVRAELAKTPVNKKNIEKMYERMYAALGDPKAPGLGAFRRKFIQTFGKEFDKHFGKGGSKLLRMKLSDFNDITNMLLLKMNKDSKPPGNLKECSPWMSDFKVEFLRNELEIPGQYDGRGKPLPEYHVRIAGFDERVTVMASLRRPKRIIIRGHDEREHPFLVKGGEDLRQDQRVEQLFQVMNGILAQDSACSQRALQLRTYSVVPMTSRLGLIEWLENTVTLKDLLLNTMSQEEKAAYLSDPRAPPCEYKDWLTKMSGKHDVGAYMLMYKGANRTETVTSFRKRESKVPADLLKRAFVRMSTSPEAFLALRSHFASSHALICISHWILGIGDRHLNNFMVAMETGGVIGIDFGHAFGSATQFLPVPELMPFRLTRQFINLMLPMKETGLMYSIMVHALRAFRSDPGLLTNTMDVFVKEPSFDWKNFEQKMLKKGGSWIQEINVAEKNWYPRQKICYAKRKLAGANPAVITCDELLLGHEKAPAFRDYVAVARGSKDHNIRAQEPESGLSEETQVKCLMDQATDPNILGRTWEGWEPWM
UniProt P09874: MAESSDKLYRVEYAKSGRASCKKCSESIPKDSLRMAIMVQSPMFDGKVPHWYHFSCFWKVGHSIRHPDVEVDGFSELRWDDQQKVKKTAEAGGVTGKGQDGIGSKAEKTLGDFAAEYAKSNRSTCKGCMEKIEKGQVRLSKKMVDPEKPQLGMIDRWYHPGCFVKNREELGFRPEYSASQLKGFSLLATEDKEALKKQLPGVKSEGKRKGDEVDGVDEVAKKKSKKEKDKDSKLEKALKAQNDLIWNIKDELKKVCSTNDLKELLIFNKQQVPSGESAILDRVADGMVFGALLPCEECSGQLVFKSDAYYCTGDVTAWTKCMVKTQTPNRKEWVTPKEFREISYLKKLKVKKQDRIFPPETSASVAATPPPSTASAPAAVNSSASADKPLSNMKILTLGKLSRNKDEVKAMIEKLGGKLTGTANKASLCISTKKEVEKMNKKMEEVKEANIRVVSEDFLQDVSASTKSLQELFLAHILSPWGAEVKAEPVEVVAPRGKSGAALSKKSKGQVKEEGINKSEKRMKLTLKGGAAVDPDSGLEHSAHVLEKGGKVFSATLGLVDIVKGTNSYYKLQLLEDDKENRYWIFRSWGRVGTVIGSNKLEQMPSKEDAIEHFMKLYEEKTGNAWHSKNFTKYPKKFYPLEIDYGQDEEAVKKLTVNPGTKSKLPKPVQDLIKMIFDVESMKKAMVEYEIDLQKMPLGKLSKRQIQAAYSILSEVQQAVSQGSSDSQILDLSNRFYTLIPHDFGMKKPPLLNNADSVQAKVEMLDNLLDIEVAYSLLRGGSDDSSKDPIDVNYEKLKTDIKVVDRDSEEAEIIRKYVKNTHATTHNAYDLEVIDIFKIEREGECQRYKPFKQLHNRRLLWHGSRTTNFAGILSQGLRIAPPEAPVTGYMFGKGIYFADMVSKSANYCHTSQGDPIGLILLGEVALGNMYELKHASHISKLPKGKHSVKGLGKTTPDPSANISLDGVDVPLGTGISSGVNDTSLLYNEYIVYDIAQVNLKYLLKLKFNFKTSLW

T1: PDCD7 (human (endogenous in C4-2)) (UniProt Q8N8D1)
T1 sequence: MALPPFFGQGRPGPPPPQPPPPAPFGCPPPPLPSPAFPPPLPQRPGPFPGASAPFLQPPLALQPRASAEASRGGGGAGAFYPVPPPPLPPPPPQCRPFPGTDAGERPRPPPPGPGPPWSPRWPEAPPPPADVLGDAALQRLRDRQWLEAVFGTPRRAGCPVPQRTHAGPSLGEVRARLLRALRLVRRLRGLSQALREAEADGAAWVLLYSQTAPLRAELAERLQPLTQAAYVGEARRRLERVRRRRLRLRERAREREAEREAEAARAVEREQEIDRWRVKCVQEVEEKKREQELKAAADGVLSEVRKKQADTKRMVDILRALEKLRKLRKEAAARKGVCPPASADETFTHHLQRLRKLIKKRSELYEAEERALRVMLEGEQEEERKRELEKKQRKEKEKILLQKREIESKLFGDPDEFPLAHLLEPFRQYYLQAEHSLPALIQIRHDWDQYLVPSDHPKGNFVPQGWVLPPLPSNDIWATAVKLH

B1: RNPC3 (protein, UniProt Q96LT9 1-517)
chain: MAAPEQPLAISRGCTSSSSLSPPRGDRTLLVRHLPAELTAEEKEDLLKYFGAQSVRVLSDKGRLKHTAFATFPNEKAAIKALTRLHQLKLLGHTLVVEFAKEQDRVHSPCPTSGSEKKKRSDDPVEDDKEKKELGYLTVENGIAPNHGLTFPLNSCLKYMYPPPSSTILANIVNALASVPKFYVQVLHLMNKMNLPTPFGPITARPPMYEDYMPLHAPLPPTSPQPPEEPPLPDEDEELSSEESEYESTDDEDRQRMNKLMELANLQPKRPKTIKQRHVRKKRKIKDMLNTPLCPSHSSLHPVLLPSDVFDQPQPVGNKRIEFHISTDMPAAFKKDLEKEQNCEEKNHDLPATEVDASNIGFGKIFPKPNLDITEEIKEDSDEMPSECISRRELEKGRISREEMETLSVFRSYEPGEPNCRIYVKNLAKHVQEKDLKYIFGRYVDFSSETQRIMFDIRLMKEGRMKGQAFIGLPNEKAAAKALKEANGYVLFGKPMVVQFARSARPKQDPKEGKRKC
B2: SNRNP35 (protein, UniProt Q16560 1-246)
chain: MNDWMPIAKEYDPLKAGSIDGTDEDPHDRAVWRAMLARYVPNKGVIGDPLLTLFVARLNLQTKEDKLKEVFSRYGDIRRLRLVRDLVTGFSKGYAFIEYKEERAVIKAYRDADGLVIDQHEIFVDYELERTLKGWIPRRLGGGLGGKKESGQLRFGGRDRPFRKPINLPVVKNDLYREGKRERRERSRSRERHWDSRTRDRDHDRGREKRWQEREPTRVWPDNDWERERDFRDDRIKGREKKERGK
B3: ZMAT5 (protein, UniProt Q9UDW3 1-170)
chain: MGKRYFCDYCDRSFQDNLHNRKKHLNGLQHLKAKKVWYDMFRDAAAILLDEQNKRPCRKFLLTGQCDFGSNCRFSHMSERDLQELSIQVEEERRAREWLLDAPELPEGHLEDWLEKRAKRLSSAPSSRAEPIRTTVFQYPVGWPPVQELPPSLRAPPPGGWPLQPRVQWG
B4: SRSF2 (protein, UniProt Q01130 1-221)
chain: MSYGRPPPDVEGMTSLKVDNLTYRTSPDTLRRVFEKYGRVGDVYIPRDRYTKESRGFAFVRFHDKRDAEDAMDAMDGAVLDGRELRVQMARYGRPPDSHHSRRGPPPRRYGGGGYGRRSRSPRRRRRSRSRSRSRSRSRSRSRYSRSKSRSRTRSRSRSTSKSRSARRSKSKSSSVSRSRSRSRSRSRSRSPPPVSKRESKSRSRSKSPPKSPEEEGAVSS
B5: ARMC7 (protein, UniProt Q9H6L4 1-198)
chain: MAQKPKVDPHVGRLGYLQALVTEFQETQSQDAKEQVLANLANFAYDPSNYEYLRQLQVLDLFLDSLSEENETLVEFAIGGLCNLCPDRANKEHILHAGGVPLIINCLSSPNEETVLSAITTLMHLSPPGRSFLPELTATPVVQCMLRFSLSASARLRNLAQIFLEDFCSPRQVAEARSRQAHSALGIPLPRSVAPRQR
B6: ZRSR2 (protein, UniProt Q15696 1-482)
chain: MAAPEKMTFPEKPSHKKYRAALKKEKRKKRRQELARLRDSGLSQKEEEEDTFIEEQQLEEEKLLERERQRLHEEWLLREQKAQEEFRIKKEKEEAAKKRQEEQERKLKEQWEEQQRKEREEEEQKRQEKKEKEEALQKMLDQAENELENGTTWQNPEPPVDFRVMEKDRANCPFYSKTGACRFGDRCSRKHNFPTSSPTLLIKSMFTTFGMEQCRRDDYDPDASLEYSEEETYQQFLDFYEDVLPEFKNVGKVIQFKVSCNLEPHLRGNVYVQYQSEEECQAALSLFNGRWYAGRQLQCEFCPVTRWKMAICGLFEIQQCPRGKHCNFLHVFRNPNNEFWEANRDIYLSPDRTGSSFGKNSERRERMGHHDDYYSRLRGRRNPSPDHSYKRNGESERKSSRHRGKKSHKRTSKSRERHNSRSRGRNRDRSRDRSRGRGSRSRSRSRSRRSRRSRSQSSSRSRSRGRRRSGNRDRTVQSPKSK

Target: T1, PDCD7 (human (endogenous in C4-2))
Assay: affinity purification with mass spectrometry

Molecule	binding
CDC5L (from UniProt Q99459 1-802)	binds
RUVBL1 (from UniProt Q9Y265 1-456)	binds
XRCC6 (from UniProt P12956 1-609)	binds
PRKDC (from UniProt P78527 1-4128)	binds
PARP1 (from UniProt P09874 1-1014)	binds
XRCC5 (from UniProt P13010 1-732)	binds
ZCRB1 (from UniProt Q8TBF4 1-217)	no binding
B1	binds
B2	binds
B3	binds
B4	binds
B5	no binding
B6	no binding

Results are given in words; binding and its absence hold for the method and conditions named. Binding seen in cells or lysates may run through a third protein. Here binding means that the protein was enriched with, or labelled near, the bait; the list need not be complete. A no says only that the protein was not detected with the bait.
